Percent effect of library compounds

Sequences of proteins named here, by UniProt entry; tags and fusion partners are left off. Residues count along the entry.
UniProt Q4DA54, 1-478: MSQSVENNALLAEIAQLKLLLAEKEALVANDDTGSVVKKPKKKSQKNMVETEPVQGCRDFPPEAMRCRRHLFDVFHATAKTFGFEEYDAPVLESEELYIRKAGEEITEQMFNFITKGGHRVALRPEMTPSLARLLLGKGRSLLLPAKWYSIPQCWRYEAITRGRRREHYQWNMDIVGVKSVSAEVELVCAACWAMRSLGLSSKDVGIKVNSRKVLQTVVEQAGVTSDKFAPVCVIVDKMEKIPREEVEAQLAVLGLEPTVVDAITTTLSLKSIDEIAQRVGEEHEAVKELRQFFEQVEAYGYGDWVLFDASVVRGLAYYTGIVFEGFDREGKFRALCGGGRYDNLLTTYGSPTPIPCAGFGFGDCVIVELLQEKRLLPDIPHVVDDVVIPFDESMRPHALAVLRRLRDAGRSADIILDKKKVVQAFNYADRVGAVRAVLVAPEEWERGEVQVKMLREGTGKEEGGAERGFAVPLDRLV
UniProt P9WNZ1, whole entry: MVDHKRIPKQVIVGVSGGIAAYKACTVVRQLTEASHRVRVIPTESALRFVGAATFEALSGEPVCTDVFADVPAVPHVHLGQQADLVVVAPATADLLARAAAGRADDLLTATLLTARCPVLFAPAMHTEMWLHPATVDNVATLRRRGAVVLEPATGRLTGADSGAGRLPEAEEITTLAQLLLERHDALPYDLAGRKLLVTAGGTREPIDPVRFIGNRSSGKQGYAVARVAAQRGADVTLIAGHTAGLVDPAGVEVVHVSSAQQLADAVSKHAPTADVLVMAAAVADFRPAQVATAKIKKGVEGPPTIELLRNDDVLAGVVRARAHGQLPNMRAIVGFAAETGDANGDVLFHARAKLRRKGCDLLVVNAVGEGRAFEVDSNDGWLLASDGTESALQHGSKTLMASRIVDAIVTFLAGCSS
UniProt P9WPC5, whole entry: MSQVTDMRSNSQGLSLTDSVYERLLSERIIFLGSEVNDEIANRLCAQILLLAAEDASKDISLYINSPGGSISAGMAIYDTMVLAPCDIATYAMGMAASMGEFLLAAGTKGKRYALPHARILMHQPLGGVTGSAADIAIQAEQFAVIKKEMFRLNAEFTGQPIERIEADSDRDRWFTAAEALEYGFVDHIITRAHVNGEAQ
UniProt P9WPC3, whole entry partner: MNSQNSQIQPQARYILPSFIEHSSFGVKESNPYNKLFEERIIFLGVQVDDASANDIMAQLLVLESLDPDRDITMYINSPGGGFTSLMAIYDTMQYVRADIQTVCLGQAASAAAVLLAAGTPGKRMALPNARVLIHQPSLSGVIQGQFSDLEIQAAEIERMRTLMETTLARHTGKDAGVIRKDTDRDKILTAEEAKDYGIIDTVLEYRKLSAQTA
UniProt Q8IDJ8, 1-583: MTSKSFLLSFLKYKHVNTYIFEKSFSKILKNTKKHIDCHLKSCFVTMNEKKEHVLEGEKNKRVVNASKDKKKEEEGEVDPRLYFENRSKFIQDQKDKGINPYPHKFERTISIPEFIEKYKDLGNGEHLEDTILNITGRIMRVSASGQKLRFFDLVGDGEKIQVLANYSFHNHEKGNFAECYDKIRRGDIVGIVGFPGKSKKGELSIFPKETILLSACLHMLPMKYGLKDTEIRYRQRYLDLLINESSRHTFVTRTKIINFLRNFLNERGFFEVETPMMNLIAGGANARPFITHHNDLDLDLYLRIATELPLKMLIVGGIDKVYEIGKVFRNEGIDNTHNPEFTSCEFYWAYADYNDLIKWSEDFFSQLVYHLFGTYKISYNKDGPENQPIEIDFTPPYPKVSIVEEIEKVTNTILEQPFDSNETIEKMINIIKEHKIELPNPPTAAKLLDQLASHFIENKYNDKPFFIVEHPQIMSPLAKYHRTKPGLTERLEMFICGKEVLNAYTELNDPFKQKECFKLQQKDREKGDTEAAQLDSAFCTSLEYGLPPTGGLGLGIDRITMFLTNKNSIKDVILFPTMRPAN

From ChEMBL document CHEMBL3988442, “University of Dundee, Small-Polar-MMV Screening Library” (2021).

Leishmania in macrophages: 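Cell assay of Leishmania donovani living inside macrophages; the read-out is not stated. Tested at 30 µM. Higher reads as stronger inhibition (inferred: compounds with an IC50 in retests scored well above the rest). Of about 69,000 compounds tested this way, about 1,000 (1.5%) reached 50% or more in at least one test.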
TcHisRS: 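Enzyme assay of histidyl-tRNA synthetase; the read-out is not stated. Target: Histidine-tRNA ligase, Trypanosoma cruzi CL Brener (UniProt Q4DA54). Compounds at 30 µM. The record gives no direction; compounds that gave an IC50 in retests scored well above the rest, so higher reads as stronger inhibition. Size under these conditions: about 69,000 compounds, about 31 of them at 50% or above in at least one test.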
CoaBC: 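Coenzyme A biosynthesis protein CoaBC, Mycobacterium tuberculosis (UniProt P9WNZ1). Enzyme assay of CoaBC with a phosphate dye (Biomol Green) read at 650 nm. Compounds at 30 µM. Higher reads as stronger inhibition, judged from the few compounds that gave an IC50. Most strong results did not repeat in a second test. Size under these conditions: about 67,000 compounds, about 40 of them at 50% or above in at least one test.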
ClpP1P2: 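Protease assay of ClpP1P2, read by the AMC dye that it sets free. Target: ClpP1P2, Mycobacterium tuberculosis (UniProt P9WPC5 and UniProt P9WPC3). Tested at 50 µM. Direction is inferred from only a few compounds that gave an IC50; most scored high, so higher reads as stronger inhibition. Most other retested compounds had strongly negative values. About 69,000 compounds were tested under these conditions; 0.015% (about 10) showed 50% or more at least once.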
PfKRS1: 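Enzyme assay of the cytosolic lysyl-tRNA synthetase in 384-well plates, read by luminescence. Target: Lysine-tRNA ligase, Plasmodium falciparum 3D7 (UniProt Q8IDJ8). Compounds at 30 µM. Higher reads as stronger inhibition, judged from the few compounds that gave an IC50. Size under these conditions: about 69,000 compounds, about 49 of them at 50% or above in at least one test.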

Values are the deposited “Percent Effect”, in %.
The record does not define 0% and 100%; most values in the screen are far below 50% and negative numbers occur (in some assays of this library far below -100).
This is an unselected part of the compounds tested.
Two or more numbers in one place are separate tests of the same structure; such repeats can differ widely.
A dash means the value is not listed here; it may have been measured.

SMILES	Leishmania in macrophages	TcHisRS	CoaBC	ClpP1P2	PfKRS1
CCn1c(CN(C)C(=O)c2ccc(N(C)C)nc2)nc2ccccc21	23.34	10.92	0	8.354	3.331
O=C(O)C(F)(F)F.O=C(O)C(F)(F)F.O=C(O)c1cc2c(nc1NCC1CC1)CCN(C1CCOC1)CC2 (stereo not drawn)	-0.1224 and 9.316	-	-	-	-
Cn1ccnc1SC1CCc2ccccc2NC1=O (stereo not drawn)	-7.701	-53.42	3.418	-4.892	4.249
C=C(C)COc1cccc(C(=O)N2CCC3(CCOCC3)CC2)c1	-29.63	2.299	1.6	8.811	-1.166
COCCC1(CNC(=O)Nc2ccc(-n3cccn3)cc2)CCC1	0.1273	2.632	11.14	-6.85	-1.306
CCNc1ncc(C(=O)N(C)Cc2nc3ccccc3n2C)cn1	18.16	2.674	1.304	-2.528	-2.544
Fc1ccc(N2CCOC3(COCCN(c4ncccn4)C3)C2)cc1.O=C(O)C(F)(F)F (stereo not drawn)	23.98	-	-	-	-
CS(=O)(=O)N1CC[C@H]2O[C@H](C(=O)NCCc3ccccn3)CC[C@H]21	-	1.961	11.4	-11.26	5.75
COCC1COCCC12CCN(S(=O)(=O)c1cccnc1)CC2.O=C(O)C(F)(F)F (stereo not drawn)	11.47	-	-	-	-
CC(C)Nc1nc2c(c(N(C)C)n1)CCN(C(=O)c1cc[nH]n1)CC2	9.677	4.813	2.917	-0.05172	1.07
O=S(=O)(C1CC1)N1C[C@H]2CCC[C@@]2(COCc2ccccn2)C1	-	6.098	5.764	5.558	0.9807
Fc1ccccc1Cc1noc(CN2CCCC(CN3CCCC3)C2)n1 (stereo not drawn)	33.68	-0.8264	-6.579	-9.624	-0.1856
CCOc1ccccc1C(CC(=O)Nc1ccc(C)cn1)NC(C)=O (stereo not drawn)	34.79	1.901	-5.053	11.26	12.26
COc1ccccc1CNC(C)c1cnc2cc(C)nn2c1C (stereo not drawn)	30.97	1.571	-3.212	11.62	5.448
COc1ncccc1-c1nc(-c2ccccn2)nn1C1CCS(=O)(=O)C1 (stereo not drawn)	24.13	2.703	5.909	-6.585	2.761
O=C1CO[C@H]2CN(C3CCOCC3)C[C@H]2N1Cc1ccc(F)cc1	-	2.174	3.311	16.94	-3.178
Cc1ncsc1CCC(=O)NC1CCN(c2ccc(Cl)nn2)CC1	16.87	-10.63	1.366	-23.28	1.005
O=C(O)C(F)(F)F.[H][C@@]12COC[C@H](C(=O)N3CCOCC3)[C@]1([H])CN(c1ncc(F)cn1)C2	11.96	-	-	-	-
CN1CCN([C@@H]2CCN(C3CCOCC3)[C@H]2Cc2cnn(C)c2)CC1	-	6.897	8.35	-0.3592	1.186
CCCC(=O)N1CCCC(Cn2cc(-c3ccc(F)cc3)nn2)C1 (stereo not drawn)	12.58	6.154	5.741	-5.163	2.666
O=C1CN(Cc2ccc(-c3ccccc3C(=O)O)cc2)CCN1	-3.738	5.376	3.01	12.51	-2.992
COCCN1CCN(CCCS(=O)(=O)c2ccccc2)CC1C (stereo not drawn)	30.71	-1.149	-1.012	0.7644	-3.612
CS(=O)(=O)N1CCC(c2cnc(-c3cn[nH]c3)cn2)CC1	35	7.576	-10.11	-13.99	1.698
CCn1ncc2c1C(COC)CN(S(=O)(=O)N(C)C)C2 (stereo not drawn)	-	-0.4975	4.519	-6.661	0.1981
CN1CCCCC12CCN(c1nncs1)CC2.O=C(O)C(F)(F)F	3.973 and -11.93	-	-	-	-
CC(C)CCN1C2(CCN(C(=O)CN(C)C)C2)c2ccccc2S1(=O)=O (stereo not drawn)	-	1.905	-6.289	-14.66	0.1179
c1cc(CN2CCO[C@H]3[C@H](OCC4CCOCC4)CC[C@@H]32)co1	-	-6.349	3.21	8.318	-0.8033
O=C(c1csc(I)c1)N1CCc2c(ncn2C2CC2)C1	26.71	6.186	1.342	-2.638	-0.503
COc1ccc(CN(C)[C@@H]2CN(S(=O)(=O)C(C)C)C[C@H]2O)cc1	-0.9373	5.747	7.177	-11.71	-2.919
CCc1cnc(N2CCN(Cc3ccon3)CC2)s1	18.81	3.185	-	5.217	3.373
CN(CC(=O)N1CCCC1c1noc(C2CC2)n1)S(C)(=O)=O (stereo not drawn)	10.92	10.34	4.797	2.322	4.679
Cc1noc(C)c1CN1CCO[C@H]2CN(Cc3nccn3C)C[C@H]21	-	2.4	3.609	-7.626	10.63
CS(=O)(=O)N1CC[C@@H]2[C@@H]1CCN2Cc1ccc2c(c1)OCO2	-	2.913	0.5089	-4.841	3.602
Cc1csc2ncnc(N3CCC(Cn4cc(C(C)(C)N)nn4)CC3)c12	49.83	8.287	-24.27	-11.52	5.899
COCCN(C)C1COC2(CCN(Cc3ccccn3)CC2)C1 (stereo not drawn)	-	2.479	5.042	3.068	1.504
COCCN1CCC(CNC(=O)c2cc(Cl)c[nH]2)CC1	-11.52	8.911	3.883	-5.514	1.143
C[C@H]1CN(C(=O)c2ccoc2)C[C@@]12CCN(CCN(C)C)C2=O.O=C(O)C(F)(F)F	-4.595	-	-	-	-
COCC(=O)N(C)Cc1nc(N(C)C)ncc1-c1ccncc1	13.85	2.682	-0.4785	-8.109	-0.5979
O=C(NCc1ccncc1)N(Cc1ccc(F)cc1F)C1CC1	13.41	6.186	0	-6.259	4.128
CN(Cc1ccco1)C1CCC12CCN(C(=O)c1ccco1)CC2.O=C(O)C(F)(F)F (stereo not drawn)	-5.519	-	-	-	-
COc1ccc2c(c1)CCCC2CC(=O)O (stereo not drawn)	-24.55	8.642	11.9	5.838	3.326
[H][C@@]12C[C@H](O)CCN1C(=O)CN(CCSc1ccccn1)C2=O	27.43	-	-	-	-
O=C(O)C(F)(F)F.[H][C@@]12CCN(C3CCOCC3)C[C@]1([H])[C@H](C(=O)NC1CC1)CCO2	4.782	-	-	-	-
COc1c(Br)c(CC2CC(CO)=NO2)c(OC)c2c1OCO2 (stereo not drawn)	-9.343	4.911	1.276	-21.11	-0.1491
Cc1ccc(NC(=O)Cc2cnc3n(C)c(=O)[nH]c(=O)n23)cc1	-4.748	-0.5917	5.789	-26.82	0.7236
COCCNC(=O)[C@@H]1CCO[C@@H]2CCN(Cc3cnn(C)c3)C[C@@H]21	-	1.22	6.266	-8.192	-3.62
O=C(NCc1cccnc1)[C@@H]1C[C@@H]2CCN(c3ncc(F)cn3)C[C@@H]2O1	-	2.041	5.562	-2.344	0.8226
CCCn1nc2c(cc1=O)CN(CC1CCCCO1)CC2 (stereo not drawn)	1.498	2.105	9.562	-3.289	8.295
Cc1noc(CN(C)C(=O)CCn2cnc3ccccc32)n1	16.85	10.53	-	10.62	-1.416

4 of the entries, repeated:

SMILES	Leishmania in macrophages	TcHisRS	CoaBC	ClpP1P2	PfKRS1
CCn1ncc2c1C(COC)CN(S(=O)(=O)N(C)C)C2 (stereo not drawn)	-	-0.4975	4.519	-6.661	0.1981
CS(=O)(=O)N1CCC(c2cnc(-c3cn[nH]c3)cn2)CC1	35	7.576	-10.11	-13.99	1.698
[H][C@@]12C[C@H](O)CCN1C(=O)CN(CCSc1ccccn1)C2=O	27.43	-	-	-	-
CS(=O)(=O)N1CC[C@@H]2[C@@H]1CCN2Cc1ccc2c(c1)OCO2	-	2.913	0.5089	-4.841	3.602